# Results: PubChem BioAssay AID540256 (National Center for Advancing Translational Sciences (NCATS), 2011)
# Screen size: about 300,000 compounds; about 3,700 (1.2%) were called active. The shares of active, inactive and inconclusive entries below differ from those in the screen. Calls come from the whole dose curve; tested in HEK293 cells. A potency beside an inconclusive call is a rough fit, not a confirmed value.
# Assay: qHTS for Inhibitors of binding or entry into cells for Lassa Virus; note: nearly all actives have a fitted effect of over 50% in size
# Conditions: Lassa virus pseudotype entry inhibition, cell reporter; activity change, negative = inhibition: at 37.9 µM (top of the series) unless noted
# % is set by controls: 0 for no effect and ±100 for the full control effect; potency is the fitted concentration of half-maximal effect.
SMILES,Potency,"activity change, negative = inhibition"
COc1ccc(Cl)cc1-c1nc(-c2ccc(NC(=O)c3cccs3)cc2)no1,"inconclusive: 35.5 µM [inhibitor, single point]",–
CSc1ccc(CNC(=O)CN2C(=O)C3CCCCN3c3ccc(C(=O)N4CCCC4)cc32)cc1 (stereo not given),–,inactive: -0.966% [at 46.1 µM]
Cc1cnn(C(=S)NCCc2ccccc2)c1,–,inactive: 9.6%
Oc1c(C(Nc2nc3ccccc3s2)c2ccco2)ccc2cccnc12 (stereo not given),"inconclusive: 5.01 µM [inhibitor, full curve]",–
Cn1ccc2c(OCC(=O)Nc3ccc([N+](=O)[O-])cc3)cccc2c1=O,"inconclusive: 6.31 µM [inhibitor, single point]",–
CC(C)CNS(=O)(=O)c1cc(C(=O)OCC(=O)N2CCOCC2)c(Cl)cc1Cl,"inconclusive: 35.5 µM [inhibitor, single point]",–
O=C(Cn1nnc(-c2ccc(Cl)cc2)n1)NCCC1=CCCCC1,–,inactive: 7.79%
COc1ccc(CC(=O)Nc2nc(C(C)(C)C)cs2)cc1,active: 4.47 µM,–
O=C1c2cccc3cccc(c23)C(=O)N1c1ccc2ncccc2c1,"inconclusive: 35.5 µM [inhibitor, single point]",–
CC(Sc1nnc(Cc2cccs2)n1C1CCCCC1)C(=O)N1CCc2ccccc21 (stereo not given),–,inactive: -22.1%
O=C(NCCc1ccccc1)C(=O)c1cn(CC(=O)N2CCCC2)c2ccccc12,"inconclusive: 35.5 µM [inhibitor, single point]",–
O=c1c2cn[nH]c2nc(SCc2ccccc2F)n1-c1ccc(Br)cc1,"inconclusive: 20.6 µM [inhibitor, single point]",–
Cc1cccc(/C=N/N2CCN(c3ccccc3)CC2)c1,"inconclusive: 0.651 µM [activator, full curve]",–
CCOP(=O)(OCC)c1cccc(O)c1,–,inactive: 22.8%
COC(=O)c1c(NC(=O)CSc2ncnc3c2cnn3-c2ccccc2Cl)sc2c1CCCC2,active: 5.8 µM,–
CNC(=O)c1c(O)c2cccc3c2n(c1=O)CCC3,"inconclusive: 0.447 µM [inhibitor, partial curve, poor fit]",–
COc1ccc(CNc2ccc(-c3ccc(OC)cc3)nn2)cc1,–,inactive: 28.5%
CN1CCN(c2ccc(S(=O)(=O)N3CCCCC3)cc2NC(=O)/C=C/c2ccc(OC(F)F)cc2)CC1,"inconclusive: 35.5 µM [inhibitor, single point]",–
CCCN1CCC(N2CCCC(C(=O)O)C2)CC1 (stereo not given),–,inactive: -18.1%
COc1ccc(Cn2ccc3nc(C)c(C(=O)N4CCN(c5ccccc5F)CC4)cc3c2=O)cc1,"inconclusive: 0.562 µM [inhibitor, full curve, poor fit]",–
Cc1cc(Oc2ccc(C(C)(C)C)cc2)nc(N2CCOCC2)n1,active: 5.01 µM,–
CC1(c2ccccc2)NC(=O)N(CC(=O)N2CCN(S(=O)(=O)c3ccccc3[N+](=O)[O-])CC2)C1=O (stereo not given),"inconclusive: 1.26 µM [inhibitor, single point]",–
CC(C)(C)C(=O)CSc1nnc(Nc2ccccc2)s1,"inconclusive: 1.26 µM [inhibitor, single point]",–
COc1ccc2nc(C)cc(SCC(=O)N/N=C/c3ccc(O)cc3O)c2c1,"inconclusive: 18.4 µM [inhibitor, partial curve]",–
COc1cc(OC)cc(-c2nnc(SCC(=O)N3CCCc4ccccc43)o2)c1,"inconclusive: 17.8 µM [inhibitor, single point]",–

SMILES,Potency,"activity change, negative = inhibition"
COC(=O)c1cc(C)sc1NC(=S)N1CCN(CCc2ccccc2)CC1,–,inactive: 16.2%
CC(C)(C)C(=O)Nc1cccc(OC(F)(F)C(F)Cl)c1 (stereo not given),"inconclusive: 22.4 µM [inhibitor, single point]",–
COC(=O)C1CCN(S(=O)(=O)c2ccc(OC)cc2)CC1,–,inactive: -0.999%
COc1ccc(C(C)(C)C)cc1NC(=O)c1[nH]c(C)c(C(C)=O)c1C,active: 11.2 µM,–
COc1ccc(-c2[nH]ncc2CNCCc2ncccc2C)cc1F,"inconclusive: 1.26 µM [inhibitor, full curve, poor fit]",–
COc1ccc(OCC(=O)N/N=C(\C)c2cc3ccccc3o2)cc1,"inconclusive: 16.4 µM [inhibitor, partial curve]",–
CCN1CCN(C(=O)c2ccc(CSc3ccc(C)cc3)cc2)CC1,"inconclusive: 20.6 µM [inhibitor, partial curve, poor fit]",–
CC(=O)Nc1ccc(CCNC(=O)c2ccc3ccccc3c2O)cc1,active: 1 µM,–
CC(=O)OCCNc1cc(SCc2ccco2)c2nonc2c1[N+](=O)[O-],–,inactive: -0.0404%
Cc1ccc2nc(COc3cccc(NC(=O)c4cccc(Cl)c4)c3)cc(=O)n2c1,"inconclusive: 35.5 µM [inhibitor, single point]",–
Cc1cccc(CS(=O)(=O)Cc2ccc(C(=O)NCC3CCCO3)o2)c1 (stereo not given),–,inactive: 1.71%
CCOC(=O)C1=C(c2ccccc2)Nc2ncnn2C1c1ccc(O)cc1 (stereo not given),"inconclusive: 0.146 µM [inhibitor, full curve, poor fit]",–
CCOC(=O)C(=Cc1cn(C)c2ccc(S(=O)(=O)N(C)C)cc12)C(=O)OCC,–,inactive: -5.89% [at 46.1 µM]
COc1ccc(COC(=O)c2ccc(Cl)c(S(=O)(=O)N3CC(C)OC(C)C3)c2)cc1 (stereo not given),"inconclusive: 2.82 µM [inhibitor, partial curve, poor fit]",–
COc1ccc(C(=O)OCC[N+]2(C)CCOCC2)cc1,–,inactive: 13.8% [at 46.1 µM]
Cc1ccc2nc(N3CCC(C(=O)NCc4ccc(F)cc4)CC3)[nH]c2c1,–,inactive: -3.51% [at 46.1 µM]
CCCCNC(=O)CSc1nc2cc3c(cc2c(=O)n1CCCCCC(=O)NCCc1ccc(OC)c(OC)c1)OCO3,–,inactive: 28.4% [at 46.1 µM]
CSc1nc(C2CC2)cc(-c2cccs2)c1C#N,–,inactive: 3.21%
O=C(COc1ccccc1[N+](=O)[O-])Nc1cc(-c2nc3cc(Cl)ccc3o2)ccc1Cl,"inconclusive: 15.8 µM [activator, single point]",–
CCCC(=O)Nc1c(-c2ccccc2OC)c(=O)c2ccccc2n1C,"inconclusive: 35.5 µM [inhibitor, single point]",–
CN1/C(=C\C(=S)Nc2ccccc2)C(C)(C)c2ccccc21,–,inactive: -15.7% [at 46.1 µM]
CCOc1cc(/C=N/O)cc(Br)c1OCC,–,inactive: -22.4%
Cc1ccccc1C(=O)NC1(C(F)(F)F)N=C(c2ccccc2)N(Cc2ccccc2)C1=O (stereo not given),–,inactive: -16.8% [at 46.1 µM]
CCOC(=O)c1c(C)[nH]c(C(=O)CSc2nnc(Nc3ccccc3F)s2)c1C,"inconclusive: 0.164 µM [inhibitor, single point]",–
Oc1ccc(-c2csc(Nc3ccccn3)n2)cc1,–,inactive: 14.6% [at 46.1 µM]

# Looked up by structure from above (5):
SMILES,Potency,"activity change, negative = inhibition"
CSc1nc(C2CC2)cc(-c2cccs2)c1C#N,–,inactive: 3.21%
CCOP(=O)(OCC)c1cccc(O)c1,–,inactive: 22.8%
CCOC(=O)C(=Cc1cn(C)c2ccc(S(=O)(=O)N(C)C)cc12)C(=O)OCC,–,inactive: -5.89% [at 46.1 µM]
COc1ccc(-c2[nH]ncc2CNCCc2ncccc2C)cc1F,"inconclusive: 1.26 µM [inhibitor, full curve, poor fit]",–
CC1(c2ccccc2)NC(=O)N(CC(=O)N2CCN(S(=O)(=O)c3ccccc3[N+](=O)[O-])CC2)C1=O (stereo not given),"inconclusive: 1.26 µM [inhibitor, single point]",–

# Continued:

SMILES,Potency,"activity change, negative = inhibition"
O=C(Nc1cccc(C(=O)N2CCOCC2)c1)c1ccccc1Br,–,inactive: -10.7%
Cc1ccc(NS(=O)(=O)c2cc(C(=O)NCc3ccncc3)ccc2C)cc1,–,inactive: -10.3%
Nc1cccc2c1C(=O)N(C(=O)/C=C/c1ccc(F)cc1)C2=O,active: 11.2 µM,–
CCOC(=O)CSc1nc2ccc(N3CCOCC3)cc2c(=O)n1Cc1ccccc1,"inconclusive: 0.517 µM [inhibitor, single point]",–
CCOC(=O)C1CCCN(C(=O)c2cc3ccc(OC)cc3[nH]2)C1 (stereo not given),"inconclusive: 1.58 µM [activator, partial curve, poor fit]",–
O=C1CN(C(=O)c2ccc(S(=O)(=O)N3CCCCC3)cc2)C(c2ccc(F)cc2)c2cc(Br)ccc2N1 (stereo not given),"inconclusive: 35.5 µM [inhibitor, single point]",–
Cc1ccccc1NC(=O)CN1CCN(Cc2ccccc2)CC1,–,inactive: -5.23%
O=c1[nH]nc(Sc2ncnc3sccc23)n1CCc1ccccc1,"inconclusive: 32.6 µM [inhibitor, single point]",–
COc1ccc(/C=C/C(=O)Nc2ccccc2)cc1OC,–,inactive: 16.1%
COc1cccc(C(=O)CSc2nnc(COc3cccc4cccnc34)o2)c1,–,inactive: -7.57%
C=C1CC(COc2ccc3c(C)c(Cl)c(=O)oc3c2)(c2ccccc2)OC1=O (stereo not given),active: 10 µM,–
O=C1c2ccccc2NC(c2ccc(Cl)cc2Cl)N1O (stereo not given),–,inactive: 1.79%
COc1ccc(N(C(C)C(=O)N/N=C/c2ccc(OCC(C)C)cc2)S(C)(=O)=O)cc1 (stereo not given),"inconclusive: 3.26 µM [inhibitor, partial curve, poor fit]",–
COc1ccc(-c2nnc(SCC(=O)c3ccc[nH]3)n2-c2ccccc2)cc1,–,inactive: 1.92%
Cc1cccc(NC(=O)c2cccc(OC(=S)N3CCOCC3)c2)c1C,–,inactive: 5.3%
CCCCCCc1cc2cc(S(=O)(=O)c3ccc(F)c(Cl)c3)c(=O)oc2cc1O,"inconclusive: 35.5 µM [inhibitor, single point]",–
COc1ccc(NC(=O)CN2CCN(C(=O)N3CCOCC3)CC2)cc1,–,inactive: -2.82%
CNC(=S)N(CCc1c(C)[nH]c2ccccc12)Cc1ccco1,"inconclusive: 35.5 µM [inhibitor, single point]",–
c1ccc(-c2ccccc2OCCOCCN2CCCCC2)cc1,"inconclusive: 18.4 µM [inhibitor, single point]",–
O=C(CN1CCN(c2cccc(Cl)c2)CC1)Nc1ccc(S(=O)(=O)N2CCOCC2)cc1,"inconclusive: 35.5 µM [inhibitor, single point]",–
O=C(CNC(=O)c1ccc(F)cc1)N/N=C/c1cn[nH]c1-c1ccccc1,"inconclusive: 1.03 µM [inhibitor, partial curve]",–
COc1ccccc1NC(=O)Cn1nnc(C(=O)NCCc2ccccc2)c1N,"inconclusive: 7.08 µM [inhibitor, full curve, poor fit]",–
Cc1cc(C)n(CCCNC(=O)CN(C)S(=O)(=O)c2ccc(Cl)cc2)n1,"inconclusive: 0.891 µM [inhibitor, single point]",–
C=CCSC(=C(C#N)C#N)c1cc2c([nH]1)CCCC2,active: 11.2 µM,–
Cc1ccc(/C=N/NC(=O)c2cccc(NC(=O)c3ccccc3Cl)c2)o1,–,inactive: -2.23% [at 46.1 µM]
